Measurements taken from patent publication US20230192853A1.
No constants are given. Whether binding was seen depends on the method and setting. Some entries that bind do so weakly or less than the wild type. Tags and fused reporters may be left off the sequences shown.

Protein sequences, listed by entry. Tags and fused reporters are not part of them. Lines headed by an entry give the natural chain unless they say otherwise; changes in a name come on top.
UniProt P01732: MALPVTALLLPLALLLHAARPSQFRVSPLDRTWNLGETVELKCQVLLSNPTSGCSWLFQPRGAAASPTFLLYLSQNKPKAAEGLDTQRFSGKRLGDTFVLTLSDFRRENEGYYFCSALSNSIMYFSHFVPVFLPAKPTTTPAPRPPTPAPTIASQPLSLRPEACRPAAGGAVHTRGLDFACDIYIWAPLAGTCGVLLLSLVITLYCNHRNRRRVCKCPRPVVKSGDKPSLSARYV

How the values were obtained:
[1] = molecular target: human CD8 on cells (HPBALL cells, TALL1 cells, CD8+ T cells of human whole blood and PBMCs) (human) (UniProt P01732); test: FACS on HPBALL cells (FIG. 3)
[2] = molecular target: human CD8 on cells (HPBALL cells, TALL1 cells, CD8+ T cells of human whole blood and PBMCs) (human) (UniProt P01732); test: FACS on HPBALL cells, 10 µg/mL, anti-human IgG Fc AF647 detection
[3] = molecular target: human CD8 on cells (HPBALL cells, TALL1 cells, CD8+ T cells of human whole blood and PBMCs) (human) (UniProt P01732); test: FACS on huCD8+ HPBALL cells, VHH-Fc at 10 µg/mL, detected with ALEXA FLUOR 647 goat anti-human IgG Fc; HEK cells as non-CD8 control
[4] = molecular target: human CD8 on cells (HPBALL cells, TALL1 cells, CD8+ T cells of human whole blood and PBMCs) (human) (UniProt P01732); test: flow cytometry on human whole blood and PBMCs, AF647-labeled VHH at 20 ng/mL

| binding [1] | binding [2] | binding [3] | binding [4] | Binder |
| --- | --- | --- | --- | --- |
| binds | binds | binds |  | 2C8 VHH fused to a C-terminal huIgG1 Fc (Fc fusion, not shown: a dimerising Fc or GST) EVQLVESGGGLVQAGGSLRLSCAASGFTFDDYAIGWFRQAPGKGREGVLCIRIFDRHTYSADSVKGRFTISSDNAQNTVYLHMNSLKPEDTAVYYCAAGSFWACTRPEGAMDYWGKGTQVTVSS |
|  |  |  | binds | 2C8 VHH, His-tagged monomer directly labeled with ALEXA FLUOR 647 (VHH, not shown: small tags and cut ends, ALEXA FLUOR 647 dye conjugated by EDC-NHS; sites not stated) VHH: EVQLVESGGGLVQAGGSLRLSCAASGFTFDDYAIGWFRQAPGKGREGVLCIRIFDRHTYSADSVKGRFTISSDNAQNTVYLHMNSLKPEDTAVYYCAAGSFWACTRPEGAMDYWGKGTQVTVSS |
